Literature values in patent US9801856B2, “Composition of a 5-HT2A serotonin receptor modulator useful for the treatment of disorders related thereto” (Arena Pharmaceuticals, Inc., priority 2008, dated 2017).
Some of these results come from one statement about several compounds together.

Sequences of proteins named here, by UniProt entry; tags and fusion partners are left off.
UniProt P14842, whole entry: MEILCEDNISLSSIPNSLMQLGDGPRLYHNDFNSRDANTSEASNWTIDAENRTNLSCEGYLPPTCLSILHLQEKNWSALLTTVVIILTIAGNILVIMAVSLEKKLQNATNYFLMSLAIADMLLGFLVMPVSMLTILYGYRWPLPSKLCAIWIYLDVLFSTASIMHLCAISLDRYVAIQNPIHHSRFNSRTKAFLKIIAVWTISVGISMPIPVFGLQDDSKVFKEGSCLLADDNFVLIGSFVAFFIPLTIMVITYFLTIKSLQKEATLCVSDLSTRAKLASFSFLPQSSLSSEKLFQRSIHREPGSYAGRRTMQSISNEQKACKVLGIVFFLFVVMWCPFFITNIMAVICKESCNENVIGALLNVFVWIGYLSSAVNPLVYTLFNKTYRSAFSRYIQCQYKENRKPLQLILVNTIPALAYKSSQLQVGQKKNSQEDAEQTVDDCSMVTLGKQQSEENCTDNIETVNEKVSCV

Target: 5-HT2A (Rattus norvegicus, UniProt P14842)
Design: host or cells: diabetic rats, in vivo
Settings: diabetic rats; cited from earlier work

## COc1cccc(CCc2ccccc2OCC(CN(C)C)OC(=O)CCC(=O)O)c1 (stereo not shown) [sarpogrelate]
  correction of a 19.8% sciatic motor conduction deficit: 82.6-99.7%
